{"source": "the supplement of paper PMC4807443", "note": "Counter-ions that a name gives are not always drawn. Some of the results follow. The numbers are fractions of the control, whatever unit the source prints. Most entries show no effect beyond the scatter of the controls.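 MIN6, a mouse insulinoma beta-cell line, stably carries a lentiviral reporter where Pdx1 and Ins1 promoters each drive a nuclear fluorescent protein; Hoechst staining and automated imaging counted cells. Drugs were candidate hits if Ins1 promoter readout exceeded two median absolute deviations from DMSO controls while Pdx1 activity stayed near normal.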"}
{"test_system": "MIN6", "experiment": "% Pdx1+ Ins1-low (RFP-only, immature) cells relative to DMSO control (fold of DMSO control); higher = more immature Pdx1+/Ins1-low cells", "details": "8.5 µM; 48 h; glucose 5 mM"}
{"smiles": "COc1ccc(C(=O)OC2C[C@H]3CC[C@@H](C2)N3C)cc1OC", "note": "(stereo not given in full) [Convolamine hydrochloride]", "% Pdx1+ Ins1-low": 0.725}
{"smiles": "C[C@H]1CC[C@]2(NC1)O[C@H]1C[C@H]3[C@@H]4CC[C@H]5C[C@@H](O[C@@H]6O[C@H](CO)[C@H](O[C@@H]7O[C@H](CO)[C@@H](O)[C@H](O[C@@H]8OC[C@@H](O)[C@H](O)[C@H]8O)[C@H]7O[C@@H]7O[C@H](CO)[C@@H](O)[C@H](O)[C@H]7O)[C@H](O)[C@H]6O)CC[C@]5(C)[C@H]4CC[C@]3(C)[C@H]1[C@@H]2C", "note": "[Tomatine]", "% Pdx1+ Ins1-low": 0.66}
{"smiles": "O=C(CCCN1CCC(n2c(=O)[nH]c3ccccc32)CC1)c1ccc(F)cc1", "note": "[Benperidol]", "% Pdx1+ Ins1-low": 0.873}
{"smiles": "C[C@@H]1CN([C@H]2CC[C@](C#N)(c3ccc(F)cc3)CC2)CC[C@]1(C(=O)O)c1ccccc1", "note": "[Levocabastine hydrochloride]", "% Pdx1+ Ins1-low": 1.07}
{"smiles": "COc1ccc(OC)c(C(O)C(C)N)c1", "note": "(stereo not given) [Methoxamine hydrochloride]", "% Pdx1+ Ins1-low": 0.943}
{"smiles": "CCC(=O)O[C@H]1CC[C@H]2[C@@H]3CCC4=CC(=O)CC[C@]4(C)[C@H]3CC[C@]12C", "note": "[Testosterone propionate]", "% Pdx1+ Ins1-low": 1.14}
{"smiles": "C[C@@H]1CC[C@]2(NC1)O[C@H]1C[C@H]3[C@@H]4CC=C5C[C@@H](O)CC[C@]5(C)[C@H]4CC[C@]3(C)[C@H]1[C@@H]2C", "note": "[Solasodine]", "% Pdx1+ Ins1-low": 0.912}
{"smiles": "CN1C2CC(=O)CC1C(O)C2", "note": "(stereo not given) [6-Hydroxytropinone]", "% Pdx1+ Ins1-low": 0.985}
{"smiles": "CN1C(=O)CCS(=O)(=O)C1c1ccc(Cl)cc1", "note": "(stereo not given) [Chlormezanone]", "% Pdx1+ Ins1-low": 0.811}
{"smiles": "CO[C@@H]1C=C2CCN(C)[C@@H]2C2c3cc4c(cc3C(=O)OC21)OCO4", "note": "(stereo not given in full) [Ungerine nitrate]", "% Pdx1+ Ins1-low": 1.18}
{"smiles": "CC(=O)[C@H]1CC[C@H]2[C@@H]3CC[C@H]4C[C@H](O)CC[C@]4(C)[C@H]3C(=O)C[C@]12C", "note": "[Alfaxalone]", "% Pdx1+ Ins1-low": 0.508}
{"smiles": "CNC(=O)Oc1ccc2c(c1)[C@]1(C)CCN(C)[C@@H]1N2C", "note": "[Eserine sulfate, physostigmine sulfate]", "% Pdx1+ Ins1-low": 0.959}
{"smiles": "CN(C)C(=O)Oc1cccc([N+](C)(C)C)c1", "note": "[Neostigmine bromide]", "% Pdx1+ Ins1-low": 1.35}
{"smiles": "CCNCC(O)c1cccc(O)c1", "note": "(stereo not given) [Etilefrine hydrochloride]", "% Pdx1+ Ins1-low": 0.619}
{"smiles": "CN1CCc2cc3c(cc2C1O)OCO3", "note": "(stereo not given) [Hydrastinine hydrochloride]", "% Pdx1+ Ins1-low": 0.89}
{"smiles": "CC(C)C[C@H]1C(=O)N2CCC[C@H]2[C@]2(O)O[C@](NC(=O)[C@@H]3C=C4c5cccc6[nH]c(Br)c(c56)C[C@H]4N(C)C3)(C(C)C)C(=O)N12", "note": "[Bromocryptine mesylate]", "% Pdx1+ Ins1-low": 1.42}
{"smiles": "CN1[C@@H]2CC[C@H]1C[C@@H](OC(=O)C(CO)c1ccccc1)C2", "note": "(stereo not given in full) [Atropine sulfate monohydrate]", "% Pdx1+ Ins1-low": 0.954}
{"smiles": "CN1Cc2c(ccc3c2OCO3)C2C(O)Cc3cc4c(cc3C21)OCO4", "note": "(stereo not drawn) [Chelidonine (+)]", "% Pdx1+ Ins1-low": 0.921}
{"smiles": "CNC(C)(C)Cc1ccccc1", "note": "[Mephentermine hemisulfate]", "% Pdx1+ Ins1-low": 1.29}
{"smiles": "CN1CCC2=C[C@H](O)[C@H]3OC(=O)c4cc5c(cc4[C@H]3[C@@H]21)OCO5", "note": "[Hippeastrine hydrobromide]", "% Pdx1+ Ins1-low": 1.29}
{"smiles": "CC1OC(OC2/C=C/C=C/C=C/C=C/CC/C=C/C=C/[C@H](C)[C@@H](O)[C@@H](C)[C@H](C)OC(=O)CC(O)CC(O)CC(O)CCC(O)C(O)C[C@]3(O)CC(O)C(C(=O)O)C(C2)O3)C(O)C(N)C1O", "note": "(stereo not given in full) [Nystatine]", "% Pdx1+ Ins1-low": 1.16}
{"smiles": "NCCC(O)C(=O)NC1CC(N)C(OC2OC(CN)C(O)[C@H](O)[C@@H]2N)[C@H](OC2O[C@H](CO)[C@@H](O)[C@@H]2O)[C@@H]1O", "note": "(stereo not given in full) [Butirosin disulfate salt]", "% Pdx1+ Ins1-low": 0.559}
{"smiles": "CC[C@H]1CN2CC[C@H]1C[C@H]2[C@H](O)c1ccnc2ccc(OC)cc12", "note": "[Hydroquinine hydrobromide hydrate]", "% Pdx1+ Ins1-low": 0.791}
{"smiles": "O=c1[nH]c2ccccc2n1C1CCN(CCCC(c2ccc(F)cc2)c2ccc(F)cc2)CC1", "note": "[Pimozide]", "% Pdx1+ Ins1-low": 1.67}
{"smiles": "Cc1cc2c(C(C)C)c(O)c(O)c(C=O)c2c(O)c1-c1c(C)cc2c(C(C)C)c(O)c(O)c(C=O)c2c1O", "note": "[Gossypol]", "% Pdx1+ Ins1-low": 0.926}
{"smiles": "C#CCN(C)[C@H](C)Cc1ccccc1", "note": "[Selegiline hydrochloride]", "% Pdx1+ Ins1-low": 1.02}
{"smiles": "C[C@@H]1O[C@@H](O[C@@H]2C=C3CC[C@@H]4[C@H](CC[C@]5(C)[C@@H](c6ccc(=O)oc6)CC[C@]45O)[C@@]3(C)CC2)[C@H](O)[C@H](O)[C@H]1O", "note": "[Proscillaridin A]", "% Pdx1+ Ins1-low": 1.23}
{"smiles": "C[C@]12CC[C@@H](O)C[C@H]1CC[C@@H]1[C@@H]2CC[C@]2(C)C(=O)CC[C@@H]12", "note": "[3-alpha-Hydroxy-5-beta-androstan-17-one]", "% Pdx1+ Ins1-low": 1.08}
{"smiles": "CNCC(O)c1ccc(O)c(OC)c1", "note": "(stereo not drawn) [Metanephrine hydrochloride DL]", "% Pdx1+ Ins1-low": 1.15}
{"smiles": "Clc1ccc(C(OCCN2CCCCC2)c2ccccc2)cc1", "note": "(stereo not given) [Cloperastine hydrochloride]", "% Pdx1+ Ins1-low": 1.26}
{"smiles": "C[C@]12CC[C@H](O)C[C@H]1CC[C@@H]1[C@@H]2C[C@@H](O)[C@]2(C)[C@@H](C3=CC(=O)OC3)CC[C@]12O", "note": "[Digoxigenin]", "% Pdx1+ Ins1-low": 1.42}
{"smiles": "CC(Cc1ccccc1)NCCC(c1ccccc1)c1ccccc1", "note": "(stereo not given) [Prenylamine lactate]", "% Pdx1+ Ins1-low": 1.24}
{"smiles": "CC(=O)NC1CCSC1=O", "note": "(racemic) [N-Acetyl-DL-homocysteine Thiolactone]", "% Pdx1+ Ins1-low": 1.03}
{"smiles": "COc1cc2c(c(OC)c1OC)-c1ccc(O)c(=O)cc1[C@@H](N)CC2", "note": "[Trimethylcolchicinic acid]", "% Pdx1+ Ins1-low": 0.962}
{"smiles": "Cc1cccc(C)c1NC1=NCCCS1", "note": "[Xylazine]", "% Pdx1+ Ins1-low": 1.05}
{"smiles": "CO[C@H](C)[C@](O)(C(=O)OCC1=CCN2CC[C@H](O)[C@@H]12)C(C)C", "note": "[Heliotrine]", "% Pdx1+ Ins1-low": 1.14}
{"smiles": "O=P1(NCCCl)OCCCN1CCCl", "note": "(stereo not given) [Ifosfamide]", "% Pdx1+ Ins1-low": 0.784}
{"smiles": "C=C(C)[C@@H]1[C@H]2OC(=O)[C@@H]1[C@]1(O)C[C@H]3O[C@]34C(=O)O[C@H]2[C@]14C", "note": "[Picrotoxinin]", "% Pdx1+ Ins1-low": 1.12}
{"smiles": "CC(C)c1c(CN(C)C(C)Cc2ccccc2)n(C)n(-c2ccccc2)c1=O", "note": "(stereo not given) [Famprofazone]", "% Pdx1+ Ins1-low": 0.684}
{"smiles": "COc1cc2c(cc1OC)C(C)NCC2", "note": "(stereo not given)", "% Pdx1+ Ins1-low": 1.21}
